SMILES strings stand for the structures.

This data set concerns olfactory system. Description: WUTC Odor Threshold Test (yes-no detection of odorant dilutions in water, signal detection analysis). Format: in vivo, human. The settings on record: combined trials of all 33 subjects. An excerpt:
The present study involved the creation and study of a new test of olfactory ability, deemed the Wheeler University of Tennessee, Chattanooga (WUTC) Odor Threshold Test. This test was developed building upon the methodology behind signal detection theory as it allowed for multiple measures of olfactory ability to be calculated from a single test. These measures are sensitivity, response-bias, and threshold. Unlike currently available threshold tests, the WUTC Odor Threshold Test utilizes a randomized, multiple odor administration along with the presentation of blank concentrations.
A total of thirty three participants (N=33), collected from the UTC campus, were administered the WUTC threshold test.
To make the test, odorant molecules were first dissolved in a purified H2O solvent following their individual levels of solubility to create standard solutions. These standards were the highest concentration for each odorant and the base from which all successive dilutions were made. Liquid odorants ethanol, pinene, and isoamyl acetate were diluted by volume whereas para-cresol and vanillin were diluted by mass. Each standard was rounded to the nearest μL. A total of nine concentrations were made from each standard solution and diluted at a ratio of 1:2. The highest concentration for each odor as well as concentration ranges were chosen based on literature threshold values and a small, preliminary testing period. Solutions (10 mL) of each odorant were diluted and contained in sterilized and dried glass vials with black, screw-top lids (see FIG. 12).
Blanks were made using 10 mL of the same purified H2O used as a solvent for the other odorants. The final test contained 45 vials with odorant concentrations and nine blanks for a total of 54 vials. Tests were remade after either one month or ten administrations had been reached to avoid any amount of loss of odor strength that could result from extended shelf time or exposure to air during administrations. Before reproducing the test, vials underwent sterilization and drying procedures.
Each subject was instructed to complete the provided demographic form (see below). […] Each participant was then seated in a cushioned, high backed chair facing away from a table where each testing vial was placed. In a brief tutorial to the test, subjects were instructed that they would be presented with a number of vials, some containing odors and some not, one at a time. Subjects were then told that they would only be required to smell the contents of the vial and verbally give a “yes” or “no” answer as to whether they detected anything. […] Once the subject felt comfortable with the instructions presented in this tutorial, the actual test was started.
Following a randomly generated number sequence for each subject, a seated test administrator would select the correspondingly numbered test vial for each trial, place it in tongs, and hand it to a second administrator that, like the participant, was facing away from the administration table. […] The “yes” or “no” response given by the subject was recorded by the first administrator and the vial and tongs were returned to him/her by the second administrator. This procedure was repeated for each of the odorant tubes in the test with each tube presented to the participant twice.
For the compound `CCO` [Ethanol, ethanol], the “Mean response-bias C” value amounted to 0.198. Turning to `CC(=O)OCCC(C)C` [Isoamyl Acetate, isoamyl acetate], the “Mean response-bias C” value is given as 0.31.

For `CC1=CCC2CC1C2(C)C` [Pinene, L-α-pinene], the “Mean response-bias C” value turned out to be 0.194. With `COc1cc(C=O)ccc1O` [Vanillin, vanillin] the figure was 0.381; with `Cc1ccc(O)cc1` [para-cresol], 0.217.

These data come from US20150177202A1, “ODOR THRESHOLD TEST” (University of Tennessee Research Foundation, priority 2013, published 2015).
